Data as given in PMC10675892.
These are yes or no findings as the source states them, for the method shown. In cells and extracts the contact can be indirect. Some entries that bind do so weakly or less than the wild type.

Molecular target: Programmed cell death 1 ligand 1 (human (endogenous in T24 and UMUC3)) (UniProt Q9NZQ7)
Assay: co-IP; lysates of T24 and UMUC3 cells in IP lysis buffer with proteinase and phosphatase inhibitors and PMSF; antibodies and protein A/G magnetic beads overnight at 4 °C; washed at least three times; western blot; PDL1-P62 also after CXCL12 (50 ng/ml, 6 h)

For “Sequestosome-1 (from UniProt Q13501 1-440)”, the binding was “binds”.
